Results deposited as PubChem BioAssay AID1224827 (NIAID, 2016)
Shown is an unselected part of about 3,800 reagents. In the full data, about 2,200 (57%) were called active. 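Active means a strong reporter change in either direction; calls are per siRNA, not per gene; qiagen siRNAs gave weaker effects.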 Reagents against one gene are numbered here. Not all columns of the deposit are shown.

Purpose: 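Identify regulators of the macrophage TNF-alpha response to bacterial LPS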 (follow-up of hits)
System: RAW264.7 G9 mouse macrophage reporter clone
Reagent: single siRNA against mouse genes, 100 nM siRNA
Timing: siRNA for 2 days, then LPS about 16 h
Conditions: bacterial lipopolysaccharide (LPS), 10 ng/ml, cells fixed after overnight (about 16 h) stimulation
Measured: 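Imaged nuclear TNF reporter intensity, background removed, scaled per plate and to non-targeting control wells, as z-scores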
Direction: TNF reporter z-score, mean and TNF reporter z-score: higher = stronger Tnf promoter reporter signal; gene median z, three same-vendor siRNAs: higher = stronger Tnf reporter signal for the gene
Active means: 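An siRNA is called active when its mean z-score over replicates is at least +2 or at most -2; control wells get no call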

gene symbol | reagent no. | TNF reporter z-score, mean | gene median z, three same-vendor siRNAs | TNF reporter z-score, repeat 1 | Call
Grpel2 (GrpE-like 2, mitochondrial) | 1 | 4.67 | -2.47 | 4.28 | active
Grpel2 (GrpE-like 2, mitochondrial) | 2 | -2.6 | -2.47 | -2.31 | active
Grpel2 (GrpE-like 2, mitochondrial) | 3 | -2.74 | -2.47 | -2.85 | active
Grpel2 (GrpE-like 2, mitochondrial) | 4 | 4.86 | 1.69 | 8.49 | active
Grpel2 (GrpE-like 2, mitochondrial) | 5 | 1.37 | 1.69 | 2.15 | inactive
Grpel2 (GrpE-like 2, mitochondrial) | 6 | 1.15 | 1.69 | 3.15 | inactive
Ppm1l (protein phosphatase 1 (formerly 2C)-like) | 1 | -2.95 | -3.48 | -3.15 | active
Ppm1l (protein phosphatase 1 (formerly 2C)-like) | 2 | -3.38 | -3.48 | -3.8 | active
Ppm1l (protein phosphatase 1 (formerly 2C)-like) | 3 | -5.26 | -3.48 | -4.73 | active
Ppm1l (protein phosphatase 1 (formerly 2C)-like) | 4 | 1.87 | 1.55 | 2.71 | inactive
Ppm1l (protein phosphatase 1 (formerly 2C)-like) | 5 | 1.12 | 1.55 | 2.07 | inactive
Ppm1l (protein phosphatase 1 (formerly 2C)-like) | 6 | 0.793 | 1.55 | 2.51 | inactive
Eif3g (eukaryotic translation initiation factor 3, subunit G) | 1 | 2.82 | 0.428 | 1.47 | active
Eif3g (eukaryotic translation initiation factor 3, subunit G) | 2 | 0.428 | 0.428 | -0.528 | inactive
Eif3g (eukaryotic translation initiation factor 3, subunit G) | 3 | -2.86 | 0.428 | -3.23 | active
Eif3g (eukaryotic translation initiation factor 3, subunit G) | 4 | -1.5 | -1.82 | -0.478 | inactive
Eif3g (eukaryotic translation initiation factor 3, subunit G) | 5 | -1.33 | -1.82 | 0.982 | inactive
Eif3g (eukaryotic translation initiation factor 3, subunit G) | 6 | -2.52 | -1.82 | -1.13 | active

Not a retest: an excerpt of the list.
gene symbol | reagent no. | TNF reporter z-score, mean | gene median z, three same-vendor siRNAs | TNF reporter z-score, repeat 1 | Call
Ppm1l (protein phosphatase 1 (formerly 2C)-like) | 2 | -3.38 | -3.48 | -3.8 | active
Ppm1l (protein phosphatase 1 (formerly 2C)-like) | 3 | -5.26 | -3.48 | -4.73 | active
Ppm1l (protein phosphatase 1 (formerly 2C)-like) | 4 | 1.87 | 1.55 | 2.71 | inactive

Further entries:
gene symbol | reagent no. | TNF reporter z-score, mean | gene median z, three same-vendor siRNAs | TNF reporter z-score, repeat 1 | Call
Ncoa5 (nuclear receptor coactivator 5) | 1 | 4.24 | -1.37 | 3.57 | active
Ncoa5 (nuclear receptor coactivator 5) | 2 | -1.37 | -1.37 | -1.6 | inactive
Ncoa5 (nuclear receptor coactivator 5) | 3 | -2.68 | -1.37 | -3.45 | active
Ncoa5 (nuclear receptor coactivator 5) | 4 | 2.29 | -0.822 | 5.1 | active
Ncoa5 (nuclear receptor coactivator 5) | 5 | 0.845 | -0.822 | 2.81 | inactive
Ncoa5 (nuclear receptor coactivator 5) | 6 | -2.57 | -0.822 | -2.38 | active
Hmox2 (heme oxygenase 2) | 1 | 0.124 | -0.497 | -0.512 | inactive
Hmox2 (heme oxygenase 2) | 2 | -0.216 | -0.497 | -0.481 | inactive
Hmox2 (heme oxygenase 2) | 3 | -1.63 | -0.497 | -0.84 | inactive
Hmox2 (heme oxygenase 2) | 4 | 3.82 | -0.616 | 6.22 | active
Hmox2 (heme oxygenase 2) | 5 | -0.616 | -0.616 | -0.573 | inactive
Hmox2 (heme oxygenase 2) | 6 | -1.98 | -0.616 | -2.36 | inactive
Ankmy2 (ankyrin repeat and MYND domain containing 2) | 1 | 1.38 | -4.29 | 1.65 | inactive
Ankmy2 (ankyrin repeat and MYND domain containing 2) | 2 | -4.29 | -4.29 | -4 | active
Ankmy2 (ankyrin repeat and MYND domain containing 2) | 3 | -5.08 | -4.29 | -5.11 | active
Ankmy2 (ankyrin repeat and MYND domain containing 2) | 4 | 4.36 | 1.35 | 6.44 | active
Ankmy2 (ankyrin repeat and MYND domain containing 2) | 5 | 2.19 | 1.35 | 3.96 | active
Ankmy2 (ankyrin repeat and MYND domain containing 2) | 6 | -3.06 | 1.35 | -2.87 | active
2900005J15Rik (RIKEN cDNA 2900005J15 gene) | 1 | 4.52 | 1.43 | 4.19 | active
2900005J15Rik (RIKEN cDNA 2900005J15 gene) | 2 | 1.43 | 1.43 | 1.5 | inactive
2900005J15Rik (RIKEN cDNA 2900005J15 gene) | 3 | -3.81 | 1.43 | -4.01 | active
2900005J15Rik (RIKEN cDNA 2900005J15 gene) | 4 | 3.34 | 0.717 | 5.6 | active
2900005J15Rik (RIKEN cDNA 2900005J15 gene) | 5 | 1.61 | 0.717 | 2.87 | inactive
2900005J15Rik (RIKEN cDNA 2900005J15 gene) | 6 | -1.49 | 0.717 | -1.04 | inactive
